Assay results published in PubChem BioAssay AID330 (DTP/NCI, 2004).
The list is a part of this screen's results and no random one: it covers a few groups of compounds. Other doses and runs of a compound may be missing. T/C: endpoint of the treated group in % of that of the vehicle group. Some doses have a count of surviving animals in place of a T/C: the source files T/C as zero there, which appears to mark a toxic dose or a test without result, not a measured value. Some survivor counts are full or nearly so, which does not show that the dose was tolerated: the source hardly ever lists a survival T/C far under the control, and the zero likely stands for such cases as well. Survivors were counted at the toxicity check, usually on the fifth day, unless a day is given; later deaths do not show. Schedules are NCI's codes, read here as Q, the interval in days (D) or hours (H), X, the number of doses. Some structures stand for samples that the source files as different forms (salt, stereo form or complex); doses refer to the form tested. Some doses were run more than once; their values stand side by side, smallest first. Marks such as (2×) count equal records among those shown. For survival time, this PubChem deposit counts one and a half times the control or more as active, and values a quarter to a half above the control carry no call in these data; other NCI protocols may use other cut-offs. Some entries show no survivor count and are marked so; the dose need not have been tolerated. Some metal complexes and salts are drawn in pieces, as in the source, so charges may not balance. Some T/C values carry the count of animals alive at the toxicity check (mostly the fifth day); without a count or a note in brackets, all were alive then.

Tested on: P388 leukemia ip, CD2F1 mice, survival T/C
Test: NCI In Vivo Anticancer Drug Screen. Data for tumor model P388 Leukemia (intraperitoneal) in CD2F1 (CDF1) mice
Conditions: T/C endpoint: median survival time, higher T/C = longer survival
[1] = dose: 12.5 mg/kg/injection, schedule: Q01DX009 (ip), vehicle: saline
[2] = dose: 100.0 mg/kg/injection, schedule: Q01DX009 (ip), vehicle: saline
[3] = dose: 200.0 mg/kg/injection, schedule: Q01DX009 (ip), vehicle: saline
[4] = dose: 50.0 mg/kg/injection, schedule: Q01DX009 (ip), vehicle: saline with Tween-80
[5] = dose: 100.0 mg/kg/injection, schedule: Q01DX009 (ip), vehicle: saline with Tween-80
[6] = dose: 200.0 mg/kg/injection, schedule: Q01DX009 (ip), vehicle: saline with Tween-80
[7] = dose: 12.5 mg/kg/injection, schedule: Q01DX009 (ip), vehicle: Klucel (hydroxypropylcellulose) (HPC)
[8] = dose: 25.0 mg/kg/injection, schedule: Q01DX009 (ip), vehicle: Klucel (hydroxypropylcellulose) (HPC)
[9] = dose: 50.0 mg/kg/injection, schedule: Q01DX009 (ip), vehicle: Klucel (hydroxypropylcellulose) (HPC)
[10] = dose: 100.0 mg/kg/injection, schedule: Q01DX009 (ip), vehicle: Klucel (hydroxypropylcellulose) (HPC)
[11] = dose: 200.0 mg/kg/injection, schedule: Q01DX009 (ip), vehicle: Klucel (hydroxypropylcellulose) (HPC)
[12] = dose: 100.0 mg/kg/injection, schedule: Q04DX003 (ip), vehicle: saline with Tween-80
[13] = dose: 200.0 mg/kg/injection, schedule: Q04DX003 (ip), vehicle: saline with Tween-80
[14] = dose: 400.0 mg/kg/injection, schedule: Q04DX003 (ip), vehicle: saline with Tween-80
[15] = dose: 60.0 mg/kg/injection, schedule: Q01DX005 (ip), vehicle: saline
[16] = dose: 120.0 mg/kg/injection, schedule: Q01DX005 (ip), vehicle: saline
[17] = dose: 240.0 mg/kg/injection, schedule: Q01DX005 (ip), vehicle: saline

SMILES: IC1CCC2SC1CCC2I (stereo not drawn)
- T/C (dose: 50.0 mg/kg/injection, schedule: Q04DX003 (ip), vehicle: saline + alcohol): 108 % of control
- T/C (dose: 100.0 mg/kg/injection, schedule: Q04DX003 (ip), vehicle: saline + alcohol): 100 and 104 % of control
- T/C (dose: 200.0 mg/kg/injection, schedule: Q04DX003 (ip), vehicle: saline + alcohol): 104, 106, 109 % of control
- T/C (dose: 400.0 mg/kg/injection, schedule: Q04DX003 (ip), vehicle: saline + alcohol): 104 and 112 % of control
- T/C (dose: 600.0 mg/kg/injection, schedule: Q04DX003 (ip), vehicle: saline + alcohol): 99 and 108 % of control

SMILES: CC(C)(C)C1COP(O)OC1 (stereo not drawn)
- T/C [1]: 101 % of control
- T/C (dose: 25.0 mg/kg/injection, schedule: Q01DX009 (ip), vehicle: saline): 101 % of control
- survivor count (dose: 50.0 mg/kg/injection, schedule: Q01DX009 (ip), vehicle: saline): 1 of 6 and 2 of 6
- survivor count [2]: 0 of 6
- survivor count [3]: 0 of 6

SMILES: O=[N+]([O-])c1cc([N+](=O)[O-])c(-c2cc([N+](=O)[O-])c(-c3c([N+](=O)[O-])cc([N+](=O)[O-])cc3[N+](=O)[O-])o2)c([N+](=O)[O-])c1
- T/C [4]: 103 % of control
- T/C [5]: 94 % of control
- T/C [6]: 93 % of control [5 of 6 alive]

SMILES: CC1(C)CN1P(=O)(Nc1ncccn1)N1CC1(C)C (stereo not drawn)
- T/C [2]: 200 % of control
- T/C [3]: 195 % of control
- T/C (dose: 400.0 mg/kg/injection, schedule: Q01DX009 (ip), vehicle: saline): 168 % of control

SMILES: CC(C)OP(C)(=O)OC(C)C.CC(C)OP(C)(=O)OC(C)C.CC(C)OP(C)(=O)OC(C)C.CC(C)OP(C)(=O)OC(C)C.[Cd+2].[O-][Cl+3]([O-])([O-])O
- T/C [1]: 112 % of control [survivor count not shown]

SMILES: O=C1C(O)=C([N+](=O)[O-])C(=O)C(O)=C1[N+](=O)[O-]
- T/C (dose: 6.25 mg/kg/injection, schedule: Q01DX005 (ip), vehicle: suspension in saline): 96 % of control
- T/C (dose: 12.5 mg/kg/injection, schedule: Q01DX005 (ip), vehicle: suspension in saline): 97 % of control
- T/C (dose: 25.0 mg/kg/injection, schedule: Q01DX005 (ip), vehicle: suspension in saline): 103 % of control
- T/C (dose: 50.0 mg/kg/injection, schedule: Q01DX005 (ip), vehicle: suspension in saline): 104 % of control
- survivor count (dose: 100.0 mg/kg/injection, schedule: Q01DX005 (ip), vehicle: suspension in saline): 1 of 5
- survivor count (dose: 200.0 mg/kg/injection, schedule: Q01DX005 (ip), vehicle: suspension in saline): 0 of 5

SMILES: C[As](C)SC(C)(C)C(N)C(=O)O (stereo not drawn)
- T/C [7]: 104, 107, 113, 117 % of control
- T/C [8]: 104, 108, 117, 122 % of control
- T/C [9]: 110 and 128 % of control
- survivor count [9]: 3 of 6, 4 of 6 (2×), 6 of 6
- survivor count [10]: 0 of 6 (2×) and 1 of 6
- survivor count [11]: 0 of 6 (2×)

SMILES: CN1CCCCC1c1ccccc1.O=[N+]([O-])c1cc([N+](=O)[O-])c(O)c([N+](=O)[O-])c1
- T/C (dose: 25.0 mg/kg/injection, schedule: Q01DX005 (ip), vehicle: Klucel (hydroxypropylcellulose) (HPC)): 98 % of control
- T/C (dose: 50.0 mg/kg/injection, schedule: Q01DX005 (ip), vehicle: Klucel (hydroxypropylcellulose) (HPC)): 97 % of control
- T/C (dose: 100.0 mg/kg/injection, schedule: Q01DX005 (ip), vehicle: Klucel (hydroxypropylcellulose) (HPC)): 90 % of control
- survivor count (dose: 200.0 mg/kg/injection, schedule: Q01DX005 (ip), vehicle: Klucel (hydroxypropylcellulose) (HPC)): 0 of 6

SMILES: COc1cc2c(c3oc4cccc(O)c4c(=O)c13)[C@@H]1C=CO[C@@H]1O2
- T/C (dose: 0.5 mg/kg/injection, schedule: Q01DX009 (ip), vehicle: saline): 104 % of control
- T/C (dose: 1.0 mg/kg/injection, schedule: Q01DX009 (ip), vehicle: saline): 118 % of control
- T/C (dose: 2.0 mg/kg/injection, schedule: Q01DX009 (ip), vehicle: saline): 118 % of control [5 of 6 alive]
- T/C (dose: 4.0 mg/kg/injection, schedule: Q01DX009 (ip), vehicle: saline): 122 % of control
- T/C (dose: 7.5 mg/kg/injection, schedule: Q01DX005 (ip), vehicle: saline with Tween-80): 131 % of control
- T/C (dose: 7.5 mg/kg/injection, schedule: Q01DX005 (iv), vehicle: saline with Tween-80): 104 % of control
- T/C (dose: 8.0 mg/kg/injection, schedule: Q01DX009 (ip), vehicle: saline): 127 % of control
- T/C (dose: 15.0 mg/kg/injection, schedule: Q01DX005 (ip), vehicle: saline with Tween-80): 133 % of control
- T/C (dose: 15.0 mg/kg/injection, schedule: Q01DX005 (iv), vehicle: saline with Tween-80): 100 % of control
- T/C (dose: 16.0 mg/kg/injection, schedule: Q01DX009 (ip), vehicle: saline): 159 % of control
- T/C (dose: 30.0 mg/kg/injection, schedule: Q01DX005 (ip), vehicle: saline with Tween-80): 169 % of control
- T/C (dose: 30.0 mg/kg/injection, schedule: Q01DX005 (iv), vehicle: saline with Tween-80): 101 % of control
- T/C (dose: 32.0 mg/kg/injection, schedule: Q01DX009 (ip), vehicle: saline): 172 % of control
- T/C (dose: 50.0 mg/kg/injection, schedule: Q04DX003 (ip), vehicle: saline with Tween-80): 158 % of control
- T/C (dose: 60.0 mg/kg/injection, schedule: Q01DX005 (ip), vehicle: saline with Tween-80): 196 % of control
- T/C (dose: 60.0 mg/kg/injection, schedule: Q01DX005 (iv), vehicle: saline with Tween-80): 115 % of control
- T/C [12]: 163 and 192 % of control
- survivor count (dose: 120.0 mg/kg/injection, schedule: Q01DX005 (ip), vehicle: saline with Tween-80): 6 of 6
- T/C (dose: 120.0 mg/kg/injection, schedule: Q01DX005 (iv), vehicle: saline with Tween-80): 100 % of control [4 of 6 alive]
- T/C [13]: 143 % of control
- survivor count [13]: 4 of 6
- survivor count [14]: 1 of 6

SMILES: N#[C][Sn]([CH2]c1ccccc1)([CH2]c1ccccc1)[CH2]c1ccccc1
- T/C [12]: 102 % of control
- T/C [13]: 100 % of control
- T/C [14]: 87 % of control [5 of 6 alive]

SMILES: Cc1ccc2c(c1)C(=O)C(Cl)(C(Cl)c1ccccc1)S2 (stereo not drawn)
- T/C [4]: 103 % of control
- T/C [5]: 96 % of control
- T/C [6]: 96 % of control

SMILES: O=[N+]([O-])c1cc([N+](=O)[O-])c(O)c([N+](=O)[O-])c1.c1ccc(CC2CCCN2)cc1
- T/C [15]: 104 % of control
- T/C [16]: 96 % of control
- survivor count [17]: 2 of 6

SMILES: O=C1OCCN1P(=O)(Cl)N1CCOC1=O
- T/C [15]: 95 % of control
- T/C [16]: 90 % of control
- survivor count [17]: 5 of 6

SMILES: ICCN(CCI)c1ccccc1-c1ccccc1
- T/C [7]: 118 % of control [5 of 6 alive]
- T/C [8]: 120 % of control [5 of 6 alive]
- T/C [9]: 145 % of control
- T/C [10]: 142 % of control
- T/C [11]: 160 % of control

SMILES: C1CN1.NC(CC(=O)O)C(=O)O.Nc1ncnc2nc[nH]c12
- T/C (dose: 100.0 mg/kg/injection, schedule: Q04DX003 (ip), vehicle: saline): 107 % of control
- T/C (dose: 200.0 mg/kg/injection, schedule: Q04DX003 (ip), vehicle: saline): 104 % of control
- T/C (dose: 400.0 mg/kg/injection, schedule: Q04DX003 (ip), vehicle: saline): 100 % of control

SMILES: CC(C)OP(C)(O)=S (stereo not drawn)
- T/C (dose: 50.0 mg/kg/injection, schedule: Q01DX005 (ip), vehicle: saline): 92 % of control
- T/C (dose: 100.0 mg/kg/injection, schedule: Q01DX005 (ip), vehicle: saline): 94 % of control [4 of 6 alive]
- survivor count (dose: 200.0 mg/kg/injection, schedule: Q01DX005 (ip), vehicle: saline): 1 of 6
